# Assay results from patent publication US20130203680A1, “FOLATE CONJUGATES FOR TREATING INFLAMMATION OF THE EYE” (ENDOCYTE, INC., priority 2010, published 2013).
# Protein sequences, listed by entry. Tags and fused reporters are not part of them. Residues count along the entry.
# UniProt P15328, 25-234: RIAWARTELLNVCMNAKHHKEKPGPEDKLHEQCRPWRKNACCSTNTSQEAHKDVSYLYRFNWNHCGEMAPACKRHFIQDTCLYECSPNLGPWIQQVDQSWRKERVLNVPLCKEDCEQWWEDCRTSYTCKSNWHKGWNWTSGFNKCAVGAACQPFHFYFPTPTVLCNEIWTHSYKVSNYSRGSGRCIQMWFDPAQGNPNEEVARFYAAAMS
# UniProt P14207, 17-230, species assumed: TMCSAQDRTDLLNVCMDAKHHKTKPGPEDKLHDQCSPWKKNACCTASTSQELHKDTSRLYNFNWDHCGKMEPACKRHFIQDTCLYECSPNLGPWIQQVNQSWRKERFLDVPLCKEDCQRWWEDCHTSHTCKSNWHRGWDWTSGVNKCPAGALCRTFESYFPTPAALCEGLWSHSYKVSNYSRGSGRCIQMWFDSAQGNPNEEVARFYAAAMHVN
# “And” between values parts separate entries of the source, which are not always exact repeats. Identical values can stand only once. Like-named read-outs stand apart in the source and are kept apart here. Not every detail of the peptide structures is certain; ends, links or a residue may be inferred. For part of these data: At least one read-out could not be matched to a standard name with certainty. For part of these data: For at least one compound, name, drawing or mass did not settle the structure.
# How the values were obtained:
# RAW264.7 cells [1] = assay: XTT cell viability / proliferation of RAW264.7 cells; assay type: cell-based, murine
# Protocol: (§1) For XTT cell viability and TNF-α inhibition assays, RAW264.7 cells in 96-well plates were treated with vehicle (culture medium) or 10-fold serial dilutions of EC0746 without or with 100-fold excess free folate. After 2 h incubation, the drug-containing media were replaced and the cells were allowed to incubate further for 70 h. Four hours prior to the end of incubation, LPS was added to the treated cells at a final concentration of 100 ng/mL. 100 μL of the culture supernatants were collected for TNF-α analysis using a commercial ELISA kit. See FIG. 2, Panel B. The cell viability was assessed by adding XTT (2,3-bis(2-methoxy-4-nitro-5-sulfo-phenyl)-2H-tetrazolium-5-carboxanilide) to the remaining medium for an additional 4 h following the manufacturer's instructions (Roche Applied Science, Indianapolis, Ind.) See FIG. 2, Panel A. Both results were expressed as % absorbance (minus background) relative to untreated control in triplicates.
# (§2) RAW264.7 cells in 96-well plates were treated with vehicle (culture medium) or 10-fold serial dilutions of EC0932 without or with 100-fold excess free folate. The drug-containing medium was replaced after 2 h treatment and the cells were allowed to incubate further in standard medium for 70 h. Four hours prior to the end of incubation, LPS was added to the treated cells at a final concentration of 100 ng/mL. 100 μL of the culture supernatants were collected for TNF-α analysis using a commercial ELISA kit (see FIG. 7, Panel B). The cell viability was assessed by adding XTT (2,3-bis(2-methoxy-4-nitro-5-sulfo-phenyl)-2H-tetrazolium-5-carboxanilide) to the remaining medium for an additional 4 h following the manufacturer's instructions (Roche Applied Science, Indianapolis, Ind.). See FIG. 7, Panel A. Both results were expressed as % absorbance (minus background) relative to untreated control in triplicates.
# (§3) At 4 h before the end of incubation, LPS (100 ng/ml) was added to the culture medium to stimulate cytokine production.
# [2] = system: LPS-stimulated TNF-α production in RAW264.7 cells; assay: LPS-stimulated TNF-α production in RAW264.7 cells (ELISA); assay type: cell-based, murine
# Protocol: as §1, §2, §3
# [3] = molecular target: folate receptors (FR-α) of KB cells (Homo sapiens, UniProt P15328); settings: FR-α positive, 3H-folic acid
# [4] = molecular target: folate receptors (FR-β) of CHO cells (Homo sapiens, UniProt P14207); settings: 3H-folic acid
# DHFR = molecular target: T1, DHFR (Mus musculus, UniProt P00375); assay: DHFR activity in lysate of treated RAW264.7 cells; assay type: cell-based, murine; settings: 2-h pulse
# T1 construct: endogenous in cells; host or cells: RAW264.7
# T1 sequence (P00375 1-187): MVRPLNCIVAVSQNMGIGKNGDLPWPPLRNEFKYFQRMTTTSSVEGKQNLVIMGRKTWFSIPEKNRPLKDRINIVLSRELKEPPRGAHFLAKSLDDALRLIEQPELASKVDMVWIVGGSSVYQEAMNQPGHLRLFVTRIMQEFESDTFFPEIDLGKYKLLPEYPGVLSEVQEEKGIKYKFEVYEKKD
# Protocol: RAW264.7 cells were treated with vehicle (medium), EC0746 (100 nM) without or with 100-fold excess free folate, aminopterin (AMT, 100 nM), methotrexate (MTX, 100 nM), or excess free folate alone (10 μM). […] At the end of incubation, the cells were lysed and the DHFR activity in cell lysates was measured using a commercial DHFR assay kit (Sigma-Aldrich, Saint Louis, Mo.).
# RAW264.7 cells [5] = assay: Cell cycle (FACS, propidium iodide), regrowth and PCNA expression of EC0746-treated RAW264.7 cells; assay type: cell-based, murine
# [6] = system: thioglycollate-elicited macrophages; assay: LPS/IFN-γ-stimulated cytokine production in thioglycollate-elicited macrophages (rat cytokine antibody array); assay type: cell-based; settings: 100 nM, 2 h pulse plus 70-h chase, LPS 5 μg/mL and IFN-γ 100 ng/mL for last 24 h
# [7] = Plasma pharmacokinetics after a single subcutaneous dose of EC0746 or aminopterin; settings: single s.c. dose of EC0746 500 nmole/kg
# Protocol: Female Lewis rats with rounded tip jugular vein catheters (Harlan) were fed regular rodent diet and used in this study. The animals were given a single subcutaneous dose of EC0746 at 500 nmol/kg. Whole blood samples (300 μl) were collected from the animals at the following time points: 1 min, 10 min, 30 min, 1 h, 2 h, 3 h, 4 h, and 8 h after injection. The blood samples were placed into anti-coagulant tubes containing 1.7 mg/mL of K3-EDTA and 0.35 mg/mL of N-Maleoyl-beta-alanine (0.35 mg/mL). Plasma samples were obtained by centrifugation for 3 min at ˜2,000 g and stored at −80° C. The amount of EC0746 and its released base drugs (EC0470 & aminopterin) were determined by HPLC using the EC0746 injection solution as the standard (see FIG. 4). […] A similar method was used to determine the plasma pharmacokinetics of aminopterin (see FIG. 5).
# Thus, the plasma concentrations of EC0746 and two primary metabolites, AMT and AMT hydrazide, were determined by LC/MS/MS after a single subcutaneous EC0746 administration. […] For comparison, the pharmacokinetics of subcutaneously dosed AMT (500 nmol/kg) was also examined (FIG. 15b).
# [8] = system: experimental autoimmune uveitis (EAU) in Lewis rats; assay: Experimental autoimmune uveitis (EAU) model; assay type: in vivo, rat
# [9] = system: mTOR signaling pathway (p-RPS6); assay: Western blot of p-RPS6 in RAW264.7, TG-elicited and arthritic macrophages (EC0565); assay type: cell-based
# [10] = system: mTOR downstream targets (P70 S6-kinase and Ribosomal S6) in KB cells; assay: Western blot of mTOR downstream targets in KB cells; assay type: cell-based; settings: 1 h pulse/4 h chase
# [11] = system: Proliferating Cell Nuclear Antigen (PCNA); assay: Western blot of PCNA in synchronized RAW264.7 cells; assay type: cell-based, murine
# [12] = 10-fold serial dilutions, 2 h treatment, 70 h further incubation
compound,measurement,setting,value
"Nc1nc(N)c2nc(CNc3ccc(C(=O)N[C@@H](CCC(=O)O)C(=O)O)cc3)cnc2n1 [aminopterin, reference compound]","cell proliferation in the XTT assay, potency of potential EC0746 metabolites",RAW264.7 cells [1]; 72 h incubations,equally potent
same,"LPS-stimulated TNF-α production, potency of potential EC0746 metabolites",[2]; 72 h incubations,equally potent
same,relative folate receptor affinity (folic acid = 1),[3],0.004 and 0.008
same,relative folate receptor affinity (folic acid = 1),[3]; listed as AMT,0.004
same,relative folate receptor affinity (folic acid = 1),[4],0.004
N=c1[nH]c(N)nc2ncc(CNc3ccc(C(=O)N[C@@H](CCC(=O)NNC(=O)OCCSSC[C@H](NC(=O)[C@H](CCC(=O)NC[C@H](O)[C@@H](O)[C@H](O)[C@H](O)CO)NC(=O)[C@H](CCC(=O)O)NC(=O)[C@H](CCC(=O)NC[C@H](O)[C@@H](O)[C@H](O)[C@H](O)CO)NC(=O)[C@H](CCC(=O)O)NC(=O)[C@H](CCC(=O)NC[C@H](O)[C@@H](O)[C@H](O)[C@H](O)CO)NC(=O)CC[C@H](NC(=O)c4ccc(NCc5cnc6nc(N)[nH]c(=O)c6n5)cc4)C(=O)O)C(=O)O)C(=O)O)cc3)nc12 [EC0746],inhibition of DHFR activity in the presence of 100-fold excess folic acid,"DHFR; 100 nM with 100-fold excess folic acid, 22-h chase",completely abolished its inhibitory effect
same,inhibition of DHFR activity,"DHFR; 100 nM, 22-h chase in drug-free medium",inhibited DHFR activity in RAW264.7 cells to a similar degree as AMT and MTX
same,inhibition of viability of RAW264.7 cells,RAW264.7 cells [1]; [12],inhibited the viability of RAW264.7 cells
same,maximum effect on cell proliferation compared to untreated cells,"RAW264.7 cells [1]; 2 h treatment, 70-h chase",~50%
same,anti-proliferative and anti-TNF activities competable with excess folic acid,RAW264.7 cells [1]; with excess folic acid,100%
same,inhibition of ability to produce TNF-α in response to LPS,[2]; [12],inhibited
same,EC50,"[2]; 2 hour treatment followed by 72 hours in treatment-free medium, read-out: EC50, inhibition of LPS-stimulated TNF-α production",1.43 nM
same,EC50,"[2]; 2 h treatment, 70 h chase, LPS 100 ng/mL 4 h before end, read-out: ED50, TNF-α production upon LPS exposure",~1.6 nM
same,growth of surviving cells redispersed in fresh medium,"RAW264.7 cells [5]; cells treated at ≧1 nM, fresh medium for 72 h",no sign of additional growth
same,cell cycle distribution (FACS),"RAW264.7 cells [5]; propidium iodide staining, competable by excess folic acid",increase in number of cells in the S-phase
same,PCNA expression (Western blot),RAW264.7 cells [5]; treated versus untreated cells,no change in PCNA expression
same,inhibition of cytokines/chemokines,[6],"inhibited a range of cytokines/chemokines, 11 of which showed a significant FR-specific inhibition"
same,time at which Cmax for EC0746 is reached,[7],30 min
same,"effect on EAU inflammation, with and without competitor EC0923","[8]; 375 nmol/kg s.c. every other day from day 8, ± 500-fold excess EC0923",Folate Receptor-Specific Activity Against EAU Inflammation
same,effect on EAU inflammation,[8]; 500 nmol/kg s.c. every other day starting on day 7 after EAU induction,Effectively Reduced Eau Inflammation
same,relative folate receptor affinity (folic acid = 1),[3],0.5
same,relative folate receptor affinity (folic acid = 1),[4],0.27
CO[C@H]1C[C@@H]2CC[C@@H](C)[C@@](O)(O2)C(=O)C(=O)N2CCCC[C@H]2C(=O)O[C@H]([C@H](C)C[C@@H]2CC[C@@H](OCCOC(=O)OCCSSC[C@H](NC(=O)[C@H](CCC(=O)NC[C@H](O)[C@@H](O)[C@H](O)[C@H](O)CO)NC(=O)[C@H](CCC(=O)O)NC(=O)[C@H](CCC(=O)NC[C@H](O)[C@@H](O)[C@H](O)[C@H](O)CO)NC(=O)[C@H](CCC(=O)O)NC(=O)[C@H](CCC(=O)NC[C@H](O)[C@@H](O)[C@H](O)[C@H](O)CO)NC(=O)CC[C@H](NC(=O)c3ccc(NCc4cnc5nc(N)[nH]c(=O)c5n4)cc3)C(=O)O)C(=O)O)[C@H](OC)C2)CC(=O)[C@H](C)/C=C(\C)[C@@H](O)[C@@H](OC)C(=O)[C@H](C)C[C@H](C)/C=C/C=C/C=C/1C [EC0565],effect on p-RPS6 in all macrophages tested,"[9]; 1-100 nM, 1 h pulse, 6 h chase",down-regulation of p-RPS6 at nanomolar concentrations
same,potency on p-RPS6 compared with everolimus,[9]; TG-elicited macrophages,less potent than everolimus
same,effect on p-RPS6 in presence of excess EC17 or free folic acid,[9]; plus 100 μM excess folate competitor,reversed the effect
same,knockdown of downstream targets of mTOR,[10],"dose-dependent, and specific knockdown of the downstream targets of mTOR"
same,effect on PCNA activities,"[11]; 1-1000 nM, EC0565 2 h treatment, 48-h chase, everolimus 48 h",inhibited PCNA activities
same,anti-PCNA effects at higher concentration,"[11]; 10, 100, to 1000 nM",both FR-specific and non FR-specific anti-PCNA effects
same,inhibitory activity blocked by excess EC17,"[11]; EC0565 at 1 nM, 1000× excess EC17",100%
same,effect on EAU inflammation,[8]; 800 nmol/kg s.c. every other day starting on day 2 after EAU induction,Effectively Reduced EAU Inflammation
